According to PubChem BioAssay AID493014 (National Center for Advancing Translational Sciences (NCATS), 2011):
Values joined by “and” are separate entries in the source; they are usually repeats but may differ in a detail not shown here. Equal values may be shown once. The list shows a part of the results. Shown are side measurements of this screen, not its main read-out; they come without a call. Compounds called inactive in the main read-out are mostly missing here. The note in brackets gives the kind of curve behind each potency; many fits are weak.

Test: qHTS Assay to Find Inhibitors of Chronic Active B-Cell Receptor Signaling
Conditions: ABC-DLBCL IkBa-CBG/CBR reporter, luminescence ratio (green luciferase fused to IkBa over red control in TMD8 lymphoma cells), 4 h
Outline: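 Compounds up to 46 uM were incubated four hours with TMD8 cells whose green CBG68 luciferase is fused to IkappaBalpha; red CBR luminescence normalised the signal, and concentration-effect curves were fitted to fusion, red and ratio data.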

[1] = measured here: CBR red luminescence, cell number
[2] = measured here: IkBa-CBG green luminescence

Compound	AC50 [1]	AC50 [2]
COc1ccc(-n2nc3c(c2NC(=O)COc2ccccc2)CS(=O)C3)cc1 (stereo unspecified)	31.6 µM [rising, single point]	–
Fc1ccc(N/N=C/C=C/c2ccccc2)c(F)c1	0.206 µM [rising, full curve, poor fit]	–
CCC1(C(=O)c2ccccc2)C(c2cccc([N+](=O)[O-])c2)C1(C(=O)OC)C(=O)OC (stereo unspecified)	9.2 µM [falling, partial curve]	–
CCCC(=O)Nc1nnc(Cc2ccccc2)s1	20 µM [rising, partial curve, poor fit]	–
O=C(c1ccccc1F)N(Cc1ccc2c(c1)OCO2)Cc1cc2cc3c(cc2n2nnnc12)OCO3	35.5 µM [rising, single point]	–
O=C1N=C(N2CCOCC2)S/C1=C\C=C/c1ccccc1	5.01 µM [falling, partial curve]	–
O=C(/C=C/c1cccs1)Nc1nncs1	25.1 µM [falling, single point]	–
O=C1[C@@H](Oc2ccccc2)[C@@H](c2cnc3ccccc3c2)N1c1ccccc1	1.16 µM [falling, partial curve, poor fit]	–
CCc1ccc(N2CCN(C(=O)c3ccc4c(c3)OCO4)CC2)cc1	3.55 µM [rising, full curve, poor fit]	–
COc1cccc(N2CCN(C(=O)c3ccc(CS(=O)c4ccc(Cl)cc4)o3)CC2)c1 (stereo unspecified)	22.4 µM [rising, single point]	12.6 µM [falling, partial curve]
Cc1c(Cc2ccccc2)c(=O)n2c([nH]c3ccccc32)c1C#N	14.1 µM [falling, single point]	–
Cc1cc(C)cc(CC2CC(=O)N(c3nc(C)cc(C)n3)C2=O)c1 (stereo unspecified)	5.62 µM [rising, single point]	–
OC(COCc1ccco1)CN1CCN(c2ccccc2)CC1 (stereo unspecified)	6.51 µM [rising, partial curve, poor fit]	–
COc1ccc(OC)c(NC(=O)CNC(=O)c2ccc([N+](=O)[O-])cc2)c1	25.1 µM [rising, single point]	–
COc1cc(C(=O)NCC2CCCO2)ccc1OCc1c(C)noc1C (stereo unspecified)	14.1 µM [rising, partial curve, poor fit]	–
COc1ccccc1NC(=O)Nc1nc(CC(=O)Nc2ccccc2F)cs1	0.461 µM [rising, full curve, poor fit]	–
COC(=O)[C@@H]1CCCN1Cc1nc(Cc2ccc(OC)c(OC)c2)no1	2 µM [rising, full curve, poor fit]	–
Cc1ccc(NC(=O)Nc2cnc3ccccc3c2)cc1	12.6 µM [falling, partial curve]	–
N=C1S/C(=C\c2ccc(-c3ccccc3C(=O)O)o2)C(=O)N1c1ccc2c(c1)OCO2	1.78 µM [falling, full curve, poor fit]	–
Brc1ccc(CNc2cc3c(cc2Br)OCCO3)cc1	35.5 µM [rising, single point]	–
CCOC(=O)c1c(N2C(=O)CC(Sc3ccccc3C(=O)O)C2=O)sc2c1CCCC2 (stereo unspecified)	11.2 µM [falling, partial curve, poor fit]	–
O=C(Nc1nnc(COc2ccccc2)s1)C1CCN(S(=O)(=O)c2ccc(Cl)cc2)CC1	2.59 µM [falling, single point]	–

Compound	AC50 [1]	AC50 [2]
ClC1(Cl)CC1CSc1nc2ccccc2[nH]1 (stereo unspecified)	6.31 µM [rising, partial curve, poor fit]	–
CC(C)(C)c1cc(=O)[nH]c(SCc2ccccc2)n1	20 µM [falling, partial curve, poor fit]	–
COC(=O)c1cc(NC(=O)c2cc3ccccc3o2)cc(C(=O)OC)c1	2.82 µM [rising, full curve]	–
COc1ccc(C2=C(CN(C)C)C(c3ccccc3)c3ccccc3O2)cc1 (stereo unspecified)	2 µM [falling, partial curve, poor fit] and 32.6 µM [falling, single point]	–
Nc1nc(N)nc(-c2cccc(Cl)c2Cl)n1	32.6 µM [falling, single point]	–
Fc1ccc(F)c(C2=NNC(=Nc3ccccc3F)SC2)c1	16.4 µM [falling, partial curve]	–
O=C(O)[C@H]1CCCC[C@H]1C(=O)Nc1ccc(Nc2ccccc2)cc1	29.1 µM [rising, single point]	–
COc1ccc(C)cc1NC(=O)CSc1nc(=O)n(Cc2ccccn2)c2c1CCC2	35.5 µM [falling, single point]	–
CCC(=O)Nc1ccc(NC(=S)NC(=O)c2cc3ccccc3o2)cc1	3.26 µM [rising, full curve, poor fit]	–
O=C(CC1Sc2ccccc2NC1=O)Nc1cccc(C(=O)O)c1 (stereo unspecified)	20.6 µM [falling, partial curve]	–
Cc1cc(OC(=O)c2ccc(S(=O)(=O)N(C)C)cc2)c([N+](=O)[O-])c(=O)[nH]1	35.5 µM [rising, partial curve, poor fit]	–
COc1ccccc1C(=O)NC(CCSC)C(=O)NCc1ccccn1 (stereo unspecified)	18.4 µM [rising, single point]	–
CCN(CC)c1ccc(/C=N/NC(=O)c2ccc3nc[nH]c3c2)c(O)c1	35.5 µM [falling, single point]	–
NC(C(=O)O)C(c1ccccc1)C(F)F (stereo unspecified)	2 µM [falling, full curve, poor fit]	–
COc1ccc(C2CC(c3c(O)cc(C)oc3=O)=NCCS2)c(OC)c1 (stereo unspecified)	25.1 µM [rising, partial curve]	20 µM [falling, partial curve]
Cc1ccc(N(C(=O)CCl)C(C(=O)NC2CCCCC2)c2cccnc2)cc1C (stereo unspecified)	6.51 µM [falling, partial curve, poor fit]	–
Cn1nnc(NC(=S)NC(=O)c2ccccc2)n1	10 µM [falling, partial curve, poor fit]	–
CCCc1cc(NCCCCO)n2c(nc3ccccc32)c1C#N	25.1 µM [falling, single point]	–
Fc1ccc(CNCc2ccc(Br)cc2)cc1	1.3 µM [rising, full curve, poor fit]	–
Cc1cc(Cl)ccc1N=Cc1c(O)n(C)c(=O)n(C)c1=O	4.47 µM [rising, partial curve, poor fit]	–
CCCCS(=O)(=O)N1CCN(S(=O)(=O)c2ccc(Cl)s2)CC1	31.6 µM [rising, single point]	–
O=C(CSc1nnc(-c2ccccc2F)n1C1CC1)Nc1cccnc1Cl	13 µM [falling, partial curve, poor fit]	–

Compound	AC50 [1]	AC50 [2]
COc1ccccc1NC(=O)c1cc(C)oc1C	15.8 µM [rising, single point]	–
OCCNc1c2ccccc2nc2ccccc12	35.5 µM [falling, single point]	–
Cc1nn(CC(=O)Nc2ccc(S(=O)(=O)N(C)C)cc2)c(C)c1[N+](=O)[O-]	0.164 µM [falling, full curve, poor fit]	–
CN(C)c1ccc(C(=O)/C=C/c2ccco2)cc1	29.1 µM [falling, single point]	–
O=C(CSc1nnc(-c2ccc(C(F)(F)F)cn2)o1)Nc1cccc(Cl)c1	0.562 µM [rising, full curve, poor fit]	–
CCCC(=O)N1CC(=O)Nc2ccc(F)cc2C1c1ccccc1 (stereo unspecified)	16.4 µM [rising, single point]	–
O=C(Nc1nc2ccc(C(=O)N3CCCCC3)cc2s1)C1CCCCC1	0.891 µM [falling, full curve, poor fit]	–
CCc1ccccc1NC(=O)c1cc(=O)c2ccccc2o1	35.5 µM [falling, partial curve, poor fit]	–
COc1ccc(Oc2nc(-c3ccccn3)ncc2OC)cc1	0.631 µM [rising, full curve, poor fit]	–
C[C@]12C=CC(=O)C=C1CC[C@@H]1[C@@H]2[C@@H](O)C[C@@]2(C)[C@H]1CC[C@]2(O)C(=O)COC(=O)CCC(=O)NCCc1ccc(O)cc1	7.08 µM [rising, partial curve, poor fit]	–
O=C(N/N=C/c1ccccc1)C(O)c1ccccc1 (stereo unspecified)	11.2 µM [falling, partial curve]	–
O=C(NCc1cccnc1)c1ccc2c(c1)C(=O)N(Cc1ccccc1)C2=O	2 µM [rising, partial curve]	–
COc1ccc(CCN/C=C2/CC(=O)NC2=O)cc1OC	29.1 µM [falling, single point]	–
CCC(CC)C(=O)Nc1nnc(-c2cccs2)s1	2.82 µM [rising, partial curve, poor fit]	–
CCOc1ccccc1NC(=O)/C=C/c1ccc(S(=O)(=O)N2CCOCC2)cc1	1.84 µM [falling, full curve]	–
CCOC(=O)CN1C(=O)S/C(=C\c2ccc(-c3ccc(C(=O)O)c(Cl)c3)o2)C1=O	35.5 µM [falling, single point]	–
COc1cccc(S(=O)(=O)NCc2ccc(C(=O)Nc3ccc(C)cc3)cc2)c1	29.1 µM [rising, single point]	–
O=[N+]([O-])c1ccc(O)c(/C=N/Nc2nc3ccccc3[nH]2)c1	0.0517 µM [falling, full curve]	–
CCOCCCNC(=O)C(=O)Nc1c2c(nn1-c1ccc(OC)cc1)CSC2	31.6 µM [rising, single point]	–
CC(Nc1nc2ccccc2n2cnnc12)c1ccccc1 (stereo unspecified)	10 µM [falling, partial curve, poor fit]	–
